Data as given in publication PMC4617606.
Results are given in words; binding and its absence hold for the method and conditions named. Binding seen in cells or lysates may run through a third protein. Some results given as binding are weak or reduced against the parent protein; the word gives no strength.

Sequences of proteins named here, by UniProt entry; tags and fusion partners are left off. A change or cut given only in a name is not applied to a line headed by its entry.
UniProt Q504Q3: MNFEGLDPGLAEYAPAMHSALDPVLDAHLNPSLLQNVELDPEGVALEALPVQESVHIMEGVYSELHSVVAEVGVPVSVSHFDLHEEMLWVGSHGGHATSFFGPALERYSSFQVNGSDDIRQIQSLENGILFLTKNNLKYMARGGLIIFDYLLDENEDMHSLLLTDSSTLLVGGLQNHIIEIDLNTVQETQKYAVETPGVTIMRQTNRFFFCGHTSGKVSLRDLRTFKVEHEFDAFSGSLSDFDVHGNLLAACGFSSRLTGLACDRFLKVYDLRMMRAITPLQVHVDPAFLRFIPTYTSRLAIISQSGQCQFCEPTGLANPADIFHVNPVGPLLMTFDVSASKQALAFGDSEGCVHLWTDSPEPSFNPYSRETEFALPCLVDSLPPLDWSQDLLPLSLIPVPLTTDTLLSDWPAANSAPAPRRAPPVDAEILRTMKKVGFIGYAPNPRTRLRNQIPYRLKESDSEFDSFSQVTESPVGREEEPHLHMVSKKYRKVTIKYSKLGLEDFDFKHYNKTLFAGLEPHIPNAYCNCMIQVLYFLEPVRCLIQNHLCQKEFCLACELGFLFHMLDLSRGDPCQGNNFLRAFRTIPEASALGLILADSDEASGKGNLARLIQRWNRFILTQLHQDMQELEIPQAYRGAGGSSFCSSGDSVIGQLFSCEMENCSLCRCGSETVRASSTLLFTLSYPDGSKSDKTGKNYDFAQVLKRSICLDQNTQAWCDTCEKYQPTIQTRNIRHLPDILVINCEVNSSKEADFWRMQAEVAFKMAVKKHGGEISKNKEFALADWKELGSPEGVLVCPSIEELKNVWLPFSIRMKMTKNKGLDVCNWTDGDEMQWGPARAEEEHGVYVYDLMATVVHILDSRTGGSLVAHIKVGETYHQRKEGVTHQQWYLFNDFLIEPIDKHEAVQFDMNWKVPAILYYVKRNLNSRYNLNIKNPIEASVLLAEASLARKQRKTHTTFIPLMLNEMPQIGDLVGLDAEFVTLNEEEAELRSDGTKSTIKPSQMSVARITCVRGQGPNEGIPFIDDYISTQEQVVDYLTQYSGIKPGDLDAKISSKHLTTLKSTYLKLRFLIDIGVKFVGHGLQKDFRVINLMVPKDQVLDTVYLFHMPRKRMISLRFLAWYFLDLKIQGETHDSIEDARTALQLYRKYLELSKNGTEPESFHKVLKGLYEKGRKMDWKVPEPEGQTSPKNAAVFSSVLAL

Target: T1, MEX-3C (UniProt Q5U5Q3)
T1 sequence: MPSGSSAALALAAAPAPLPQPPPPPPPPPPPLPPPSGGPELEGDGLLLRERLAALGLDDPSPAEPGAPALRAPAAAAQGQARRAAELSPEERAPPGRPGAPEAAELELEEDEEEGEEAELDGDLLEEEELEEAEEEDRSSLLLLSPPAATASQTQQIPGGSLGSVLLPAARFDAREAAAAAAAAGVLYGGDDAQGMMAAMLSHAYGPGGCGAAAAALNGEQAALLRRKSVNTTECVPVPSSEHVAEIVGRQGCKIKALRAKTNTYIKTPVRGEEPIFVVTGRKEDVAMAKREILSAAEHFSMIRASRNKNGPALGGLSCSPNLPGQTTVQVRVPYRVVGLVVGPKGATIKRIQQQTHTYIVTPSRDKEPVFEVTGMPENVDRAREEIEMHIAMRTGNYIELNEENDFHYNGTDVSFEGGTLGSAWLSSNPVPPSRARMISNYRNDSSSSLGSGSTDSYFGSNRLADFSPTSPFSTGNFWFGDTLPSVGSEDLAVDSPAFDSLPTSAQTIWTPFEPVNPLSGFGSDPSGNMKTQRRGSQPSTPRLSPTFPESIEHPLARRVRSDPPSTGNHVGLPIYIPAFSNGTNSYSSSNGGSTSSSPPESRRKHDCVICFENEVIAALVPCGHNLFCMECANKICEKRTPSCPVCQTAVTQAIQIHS
Experiment: co-IP; MEX-3C immunoprecipitated from transfected HEK293T lysate (1% NP-40 in TBS) in the presence of 20 U ml^-1 RNase-I; immunoblot of endogenous deadenylase subunits

binding: binds
Substance: PAN2-PAN3 deadenylation complex (from UniProt Q504Q3 1-1202; Q58A45 1-887)
